Measured values published in patent US20250205344A1, “2,4-DIOXOTETRAHYDROPYRIMIDINYL DERATIVES AS DEGRONS IN PROTACS” (GLAXOSMITHKLINE INTELLECTUAL PROPERTY DEVELOPMENT LIMITED, priority 2022, published 2025).
Some results were stated once for a whole list of compounds, not compound by compound. At least one read-out could not be matched to a standard name with certainty. At least one structure is not confirmed: it was looked up by name or label, or the drawing left a doubt.

Protein sequences, listed by entry. Tags and fused reporters are not part of them.
UniProt P10275, whole entry T878A: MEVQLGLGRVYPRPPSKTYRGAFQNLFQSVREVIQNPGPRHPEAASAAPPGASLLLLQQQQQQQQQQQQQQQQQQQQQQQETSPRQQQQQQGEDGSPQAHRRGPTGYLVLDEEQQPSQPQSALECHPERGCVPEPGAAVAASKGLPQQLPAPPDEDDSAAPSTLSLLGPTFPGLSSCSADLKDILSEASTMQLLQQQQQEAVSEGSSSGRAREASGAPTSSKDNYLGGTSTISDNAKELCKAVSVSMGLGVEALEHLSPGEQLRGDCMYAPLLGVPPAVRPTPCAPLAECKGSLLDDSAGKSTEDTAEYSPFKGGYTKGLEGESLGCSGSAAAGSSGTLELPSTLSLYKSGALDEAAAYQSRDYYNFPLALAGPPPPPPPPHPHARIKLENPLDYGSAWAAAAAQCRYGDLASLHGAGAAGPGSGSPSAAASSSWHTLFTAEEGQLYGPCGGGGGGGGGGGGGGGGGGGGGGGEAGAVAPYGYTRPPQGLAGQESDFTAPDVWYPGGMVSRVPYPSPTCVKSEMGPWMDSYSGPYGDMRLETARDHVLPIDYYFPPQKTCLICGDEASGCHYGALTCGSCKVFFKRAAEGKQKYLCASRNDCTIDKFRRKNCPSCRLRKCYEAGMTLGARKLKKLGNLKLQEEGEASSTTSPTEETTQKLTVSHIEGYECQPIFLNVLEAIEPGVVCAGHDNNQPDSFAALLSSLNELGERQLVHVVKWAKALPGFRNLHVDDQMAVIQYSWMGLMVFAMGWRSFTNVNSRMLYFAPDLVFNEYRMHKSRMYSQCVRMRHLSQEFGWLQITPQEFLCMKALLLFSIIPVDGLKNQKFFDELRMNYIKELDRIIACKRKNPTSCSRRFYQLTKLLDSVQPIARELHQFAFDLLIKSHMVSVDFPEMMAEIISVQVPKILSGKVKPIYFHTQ

The molecules below were run against T1, Androgen Receptor (Homo sapiens, UniProt P10275, T878A) (assay: Androgen Receptor Degradation Assay (Nano-Glo HiBiT)). Details: HiBiT-tagged AR in human LnCaP cells, 18 h.
T1 construct: the AR gene was modified, using CRISPR/Cas9 editing, so the expressed AR protein included an 11 amino acid HiBiT tag; endogenous in cells; host or cells: clonal LnCaP-derived line, AR gene edited by CRISPR/Cas9
Type: cell-based
Experimental: Degradation of Androgen Receptor protein in human LnCaP cells treated with PROTACs was quantified using the Nano-Glo® HiBiT Lytic Detection System (Promega) in 384 well assay plate format. A clonal LnCaP derived cell line was first established in which the AR gene was modified, using CRISPR/Cas9 editing, so the expressed AR protein included an 11 amino acid HiBiT tag at its amino-terminus. 10 mM DMSO stock solutions of PROTACs were prepared and diluted across an 11 concentration, 3 fold increment range, and 25 nL dispensed into a white opaque bottomed 384 well assay plate (Thermofisher) using an acoustic ECHO dispenser (Labcyte). […] For the assay, cells were detached from flask and resuspended with assay medium (FluoroBrite™ DMEM supplemented with 10% heat inactivated FBS, penicillin 50 U/mL and streptomycin 50 ug/mL (Thermofisher)). The cell suspension was centrifuged at 400 g for 5 min and the pellet resuspended in assay medium. 25 μL of cell suspension containing 10,000 cells was dispensed into each well of the assay plate containing the test compounds, which was then incubated for 18 h at 37° C./5% CO2. Control wells were included on each assay plate, with assay medium without cells being the no AR remaining 100% effect control, and cells treated with DMSO vehicle only, without PROTAC, the 0% effect control. 25 μL of Nano-Glo® HiBiT lysis buffer supplemented with LgBiT protein and Nano-Glo® substrate (Promega) was added to each well and the plate shaken at 500 rpm for 10 min at room temperature. The intensity of luminescence was measured using a PHERAstar microplate reader (BMG Labtech) and the % AR protein remaining in each well calculated by normalising the raw luminescence value to the above control wells. Parameters corresponding to the potency and efficacy estimates of the PROTACs were obtained from these normalised luminescence values using software (IDBS ActivityBase). These included the DC50 and the Dmax estimates. Two versions of the DC50, called relative DC50 and absolute DC50, were typically generated. These are the inflection point of a fitted 4 parameter sigmoidal response curve and the interpolated concentration of PROTAC corresponding to 50% of the protein being degraded, respectively. The Dmax parameter was the maximum experimentally observed degradation and the asymptote max parameter the fitted response curve asymptote maximum.

Compound | mean relative pDC50 | mean asymptote max [%]
C[C@@H]1CN(c2ccc(C#N)c(Cl)c2)[C@@H](C)CN1C(=O)c1ccc(OCCCCCN2CCC(n3ncc4c(N5CCC(=O)NC5=O)cncc43)CC2)nc1 [EAR164, 2-Chloro-4-((2S,5R)-4-(6-((5-(4-(4-(2,4-dioxotetrahydropyrimidin-1(2H)-yl)-1H-pyrazolo[3,4-c]pyridin-1-yl)piperidin-1-yl)pentyl)oxy)nicotinoyl)-2,5-dimethylpiperazin-1-yl)benzonitrile] | ≥ 6.0 | 
CC(C)n1ccc2c(N3CCC(=O)NC3=O)cc(C(=O)N(C)CC3CCN(C4CCN(c5ccc(N6C(=S)N(c7ccc(C#N)c(C(F)(F)F)c7)C(=O)C6(C)C)cc5)CC4)CC3)cc21.O=CO [EAR88, N-((1′-(4-(3-(4-Cyano-3-(trifluoromethyl)phenyl)-5,5-dimethyl-4-oxo-2-thioxoimidazolidin-1-yl)phenyl)-[1,4′-bipiperidin]-4-yl)methyl)-4-(2,4-dioxotetrahydropyrimidin-1(2H)-yl)-1-isopropyl-N-methyl-1H-indole-6-carboxamide formate] | ≥ 6.0 | 
CC1(C)C(=O)N(c2ccc(C#N)c(C(F)(F)F)c2)C(=S)N1c1ccc(OCCCN2CCC(n3ccc4c(N5CCC(=O)NC5=O)cncc43)CC2)cc1 [EAR104, 4-(3-(4-(3-(4-(4-(2,4-Dioxotetrahydropyrimidin-1(2H)-yl)-1H-pyrrolo[2,3-c]pyridin-1-yl)piperidin-1-yl)propoxy)phenyl)-4,4-dimethyl-5-oxo-2-thioxoimidazolidin-1-yl)-2-(trifluoromethyl)benzonitrile] |  | > 70
CC1(C)C(=O)N(c2ccc(C#N)c(C(F)(F)F)c2)C(=S)N1c1ccc(N2CCC(CN3CCC(n4ncc5c(N6CCC(=O)NC6=O)cccc54)CC3)CC2)cc1 [EAR95, 4-(3-(4-(4-((4-(4-(2,4-Dioxotetrahydropyrimidin-1(2H)-yl)-1H-indazol-1-yl)piperidin-1-yl)methyl)piperidin-1-yl)phenyl)-4,4-dimethyl-5-oxo-2-thioxoimidazolidin-1-yl)-2-(trifluoromethyl)benzonitrile] |  | > 70
CC(C)n1ccc2c(N3CCC(=O)NC3=O)cc(C(=O)N(C)CC3CCN(CCC4CCN(c5ccc(N6C(=S)N(c7ccc(C#N)c(C(F)(F)F)c7)C(=O)C6(C)C)cc5)CC4)CC3)cc21 [EAR91, N-((1-(2-(1-(4-(3-(4-Cyano-3-(trifluoromethyl)phenyl)-5,5-dimethyl-4-oxo-2-thioxoimidazolidin-1-yl)phenyl)piperidin-4-yl)ethyl)piperidin-4-yl)methyl)-4-(2,4-dioxotetrahydropyrimidin-1(2H)-yl)-1-isopropyl-N-methyl-1H-indole-6-carboxamide] | ≥ 7.0 | 
CC(C)n1ccc2c(N3CCC(=O)NC3=O)cc(C(=O)N(C)CC3CCN(CC4CCN(c5ccc(N6C(=S)N(c7ccc(C#N)c(C(F)(F)F)c7)C(=O)C6(C)C)cc5)CC4)CC3)cc21 [EAR89, N-((1-((1-(4-(3-(4-Cyano-3-(trifluoromethyl)phenyl)-5,5-dimethyl-4-oxo-2-thioxoimidazolidin-1-yl)phenyl)piperidin-4-yl)methyl)piperidin-4-yl)methyl)-4-(2,4-dioxotetrahydropyrimidin-1(2H)-yl)-1-isopropyl-N-methyl-1H-indole-6-carboxamide] | ≥ 7.0 | 
C[C@@H]1CN(c2ccc(C#N)c(Cl)c2)[C@@H](C)CN1C(=O)c1ccc(OCCCCCN2CCC(n3ccc4c(N5CCC(=O)NC5=O)cncc43)CC2)nc1 [EAR165, 2-Chloro-4-((2S,5R)-4-(6-((5-(4-(4-(2,4-dioxotetrahydropyrimidin-1(2H)-yl)-1H-pyrrolo[2,3-c]pyridin-1-yl)piperidin-1-yl)pentyl)oxy)nicotinoyl)-2,5-dimethylpiperazin-1-yl)benzonitrile] | ≥ 6.0 | 
N#Cc1ccc(OC2CCC(NC(=O)c3cnc(N4CCC(CN5CCC(n6ccc7c(N8CCC(=O)NC8=O)ncnc76)CC5)CC4)cn3)CC2)cc1C(F)(F)F (stereo not drawn) [EAR198, N-((1r,4r)-4-(4-Cyano-3-(trifluoromethyl)phenoxy)cyclohexyl)-5-(4-((4-(4-(2,4-dioxotetrahydropyrimidin-1(2H)-yl)-7H-pyrrolo[2,3-d]pyrimidin-7-yl)piperidin-1-yl)methyl)piperidin-1-yl)pyrazine-2-carboxamide] |  | > 70
C[C@@H]1CN(C(=O)Nc2ccc(N3CCC(CN4CCC(n5ncc6c(N7CCC(=O)NC7=O)cncc65)CC4)CC3)nc2)[C@@H](C)CN1c1ccc(C#N)c(Cl)c1 [EAR245, (2S,5R)-4-(3-Chloro-4-cyanophenyl)-N-(6-(4-((4-(4-(2,4-dioxotetrahydropyrimidin-1(2H)-yl)-1H-pyrazolo[3,4-c]pyridin-1-yl)piperidin-1-yl)methyl)piperidin-1-yl)pyridin-3-yl)-2,5-dimethylpiperazine-1-carboxamide] | ≥ 6.0 | 
C[C@@H]1CN(c2ccc(C#N)c(Cl)c2)[C@@H](C)CN1C(=O)c1ccc(OCCN2CCC(n3ncc4c(N5CCC(=O)NC5=O)cncc43)CC2)nc1 [EAR174, 2-Chloro-4-((2S,5R)-4-(6-(2-(4-(4-(2,4-dioxotetrahydropyrimidin-1(2H)-yl)-1H-pyrazolo[3,4-c]pyridin-1-yl)piperidin-1-yl)ethoxy)nicotinoyl)-2,5-dimethylpiperazin-1-yl)benzonitrile] | ≥ 6.0 | 
C[C@@H]1CN(C(=O)Nc2ccc(N3CCC(CCN4CCC(n5ncc6c(N7CCC(=O)NC7=O)cccc65)CC4)CC3)nc2)[C@@H](C)CN1c1ccc(C#N)c(Cl)c1.O=CO [EAR132, (2S,5R)-4-(3-Chloro-4-cyanophenyl)-N-(6-(4-(2-(4-(4-(2,4-dioxotetrahydropyrimidin-1(2H)-yl)-1H-indazol-1-yl)piperidin-1-yl)ethyl)piperidin-1-yl)pyridin-3-yl)-2,5-dimethylpiperazine-1-carboxamide, formic acid salt] | ≥ 6.0 | 
CC(C)n1ccc2c(N3CCC(=O)NC3=O)cc(C(=O)N3CCN(CC4CCN(c5ncc(NC(=O)N6C[C@H](C)N(c7ccc(C#N)c(Cl)c7)C[C@H]6C)cn5)CC4)CC3)cc21 [EAR107, (2R,5S)-4-(3-Chloro-4-cyanophenyl)-N-(2-(4-((4-(4-(2,4-dioxotetrahydropyrimidin-1(2H)-yl)-1-isopropyl-1H-indole-6-carbonyl)piperazin-1-yl)methyl)piperidin-1-yl)pyrimidin-5-yl)-2,5-dimethylpiperazine-1-carboxamide] | ≥ 6.0 | 
CC(C)n1ccc2c(N3CCC(=O)NC3=O)cc(C(=O)N(C)C3CCN(CC4CCN(c5ccc(N6C(=S)N(c7ccc(C#N)c(C(F)(F)F)c7)C(=O)C6(C)C)cc5)CC4)CC3)cc21.O=CO [EAR90, N-(1-((1-(4-(3-(4-Cyano-3-(trifluoromethyl)phenyl)-5,5-dimethyl-4-oxo-2-thioxoimidazolidin-1-yl)phenyl)piperidin-4-yl)methyl)piperidin-4-yl)-4-(2,4-dioxotetrahydropyrimidin-1(2H)-yl)-1-isopropyl-N-methyl-1H-indole-6-carboxamide formate] | ≥ 6.0 | 
N#Cc1ccc(O[C@H]2CC[C@H](NC(=O)c3ccc(N4CCC(CN5CCC(n6ncc7c(N8CCC(=O)NC8=O)ccnc76)CC5)CC4)nn3)CC2)cc1Cl [EAR122, N-((1r,4r)-4-(3-chloro-4-cyanophenoxy)cyclohexyl)-6-(4-((4-(4-(2,4-dioxotetrahydropyrimidin-1(2H)-yl)-1H-pyrazolo[3,4-b]pyridin-1-yl)piperidin-1-yl)methyl)piperidin-1-yl)pyridazine-3-carboxamide] |  | ≥ 50
C[C@@H]1CN(C(=O)Nc2ccc(N3CCC(CN4CCC(n5ncc6c(N7CCC(=O)NC7=O)cccc65)CC4)CC3)nc2)[C@@H](C)CN1c1ccc(C#N)c(Cl)c1.O=CO [EAR138, (2S,5R)-4-(3-Chloro-4-cyanophenyl)-N-(6-(4-((4-(4-(2,4-dioxotetrahydropyrimidin-1(2H)-yl)-1H-indazol-1-yl)piperidin-1-yl)methyl)piperidin-1-yl)pyridin-3-yl)-2,5-dimethylpiperazine-1-carboxamide, formic acid salt] | ≥ 6.0 | 

Same assay, conditions: HiBiT-tagged AR in human LnCaP cells, 18 h; listed as Example EAR89

Compound | mean relative pDC50
CC(C)n1ccc2c(N3CCC(=O)NC3=O)cc(C(=O)N(C)CC3CCN(CC4CCN(c5ccc(N6C(=S)N(c7ccc(C#N)c(C(F)(F)F)c7)C(=O)C6(C)C)cc5)CC4)CC3)cc21 [EAR89, N-((1-((1-(4-(3-(4-Cyano-3-(trifluoromethyl)phenyl)-5,5-dimethyl-4-oxo-2-thioxoimidazolidin-1-yl)phenyl)piperidin-4-yl)methyl)piperidin-4-yl)methyl)-4-(2,4-dioxotetrahydropyrimidin-1(2H)-yl)-1-isopropyl-N-methyl-1H-indole-6-carboxamide] | ≥ 6.0

Same assay, conditions: HiBiT-tagged AR in human LnCaP cells, 18 h; listed as Example EAR91

Compound | mean relative pDC50
CC(C)n1ccc2c(N3CCC(=O)NC3=O)cc(C(=O)N(C)CC3CCN(CCC4CCN(c5ccc(N6C(=S)N(c7ccc(C#N)c(C(F)(F)F)c7)C(=O)C6(C)C)cc5)CC4)CC3)cc21 [EAR91, N-((1-(2-(1-(4-(3-(4-Cyano-3-(trifluoromethyl)phenyl)-5,5-dimethyl-4-oxo-2-thioxoimidazolidin-1-yl)phenyl)piperidin-4-yl)ethyl)piperidin-4-yl)methyl)-4-(2,4-dioxotetrahydropyrimidin-1(2H)-yl)-1-isopropyl-N-methyl-1H-indole-6-carboxamide] | ≥ 6.0

Same assay, conditions: HiBiT-tagged AR in human LnCaP cells, 18 h; listed as Example EAR198

Compound | mean asymptote max [%]
N#Cc1ccc(OC2CCC(NC(=O)c3cnc(N4CCC(CN5CCC(n6ccc7c(N8CCC(=O)NC8=O)ncnc76)CC5)CC4)cn3)CC2)cc1C(F)(F)F (stereo not drawn) [EAR198, N-((1r,4r)-4-(4-Cyano-3-(trifluoromethyl)phenoxy)cyclohexyl)-5-(4-((4-(4-(2,4-dioxotetrahydropyrimidin-1(2H)-yl)-7H-pyrrolo[2,3-d]pyrimidin-7-yl)piperidin-1-yl)methyl)piperidin-1-yl)pyrazine-2-carboxamide] | ≥ 50
